Assay results reported in article PMC8023272.
These are yes or no findings as the source states them, for the method shown. In cells and extracts the contact can be indirect. A yes stands for co-enrichment or nearness to the bait. Other partners may have been found.

Chains of the proteins cited; added tags and fusions are not shown. Lines headed by an entry give the natural chain unless they say otherwise; changes in a name come on top.
UniProt Q57ZJ6: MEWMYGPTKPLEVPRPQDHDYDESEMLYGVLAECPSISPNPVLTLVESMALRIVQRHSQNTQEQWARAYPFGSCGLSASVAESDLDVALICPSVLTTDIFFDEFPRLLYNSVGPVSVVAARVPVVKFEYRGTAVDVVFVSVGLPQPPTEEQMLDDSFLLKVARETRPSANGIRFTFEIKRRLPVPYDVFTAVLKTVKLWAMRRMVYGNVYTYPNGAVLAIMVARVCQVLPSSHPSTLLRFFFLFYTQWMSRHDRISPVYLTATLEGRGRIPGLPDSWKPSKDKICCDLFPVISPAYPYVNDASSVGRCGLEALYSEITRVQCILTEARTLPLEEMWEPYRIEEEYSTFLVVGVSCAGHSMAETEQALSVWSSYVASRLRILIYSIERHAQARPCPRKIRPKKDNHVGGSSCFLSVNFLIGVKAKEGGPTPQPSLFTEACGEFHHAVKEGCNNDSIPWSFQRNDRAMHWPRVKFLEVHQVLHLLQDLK
UniProt Q386H7: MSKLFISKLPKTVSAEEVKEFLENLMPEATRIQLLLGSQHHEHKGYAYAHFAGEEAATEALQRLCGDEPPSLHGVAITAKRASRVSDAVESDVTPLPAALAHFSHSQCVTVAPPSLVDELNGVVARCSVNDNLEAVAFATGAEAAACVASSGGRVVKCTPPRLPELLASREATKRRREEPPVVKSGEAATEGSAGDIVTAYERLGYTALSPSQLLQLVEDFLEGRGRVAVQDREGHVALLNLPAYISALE

Molecular target: KKIP8 (poly(A) polymerase PAP1) (Trypanosoma brucei (strain Lister 427)) (UniProt Q57ZJ6)
Assay: affinity purification with mass spectrometry; YFP-tagged bait captured from cleared lysate of ~3x10^9 procyclic cells on anti-GFP antibody beads, without cross-linking; HKMEG (150 mM KCl, 25 mM HEPES pH7.8), 1% Nonidet P40, 20 µM MG-132, 2 h on ice; label-free SINQ quantitation, enrichment against YFP-KKIP1 control

For KKIP12 (RBP34) (from UniProt Q386H7), the binding was “binds”.
